Source: PubChem BioAssay AID743456 (Peter MacCallum Cancer Centre, 2014)

Screen: 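Identify miRNAs tied to vorinostat resistance or sensitivity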 (primary screen)
Cells: human HCT116-VR colon cancer cells, a vorinostat-resistant HCT116 line
Reagent: miRNA mimic
Timing: about 3 days from transfection to readout; drug present for the last 24 h
Conditions: vorinostat at 2.5 µM final for 24 h
Measurement: 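Cell viability from CellTiter-Fluor signal and caspase activity from luminescence after 24 h vorinostat at 2.5 µM, given as robust z-scores and as ratios to mock-transfected wells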
Direction: viability robust z-score: higher = more viable cells; caspase robust z-score: higher = more caspase activity, more apoptosis
Call rule: 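a mimic counts as active if it lands in a lowered-viability class or a caspase-activation class; wells with too few cells without drug are left out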
This is a random part of 878 deposited reagents. 27 of them (3.1%) count as active. 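27 mimics are marked active, unlike an earlier stated count of 24; the viability threshold is described inconsistently.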 Not all columns of the deposit are shown. Not given: the amount of reagent.

miRNA | viability robust z-score | caspase robust z-score | viability hit class | caspase hit class | outcome
hsa-miR-199b-5p | 1.54 | -0.38 | no change | no change | inactive
hsa-miR-1224-3p | 0.18 | -1.19 | no change | no change | inactive
hsa-miR-1228 | -0.28 | 2.21 | no change | no change | inactive
hsa-miR-520a-3p | -0.11 | 2 | no change | no change | inactive
hsa-miR-30a | 1.16 | -0.15 | no change | no change | inactive
hsa-miR-548i | 0.7 | -0.6 | no change | no change | inactive
hsa-miR-1231 | -2.36 | 5.04 | no change | caspase activation | active
hsa-miR-187* | 1.11 | -0.55 | no change | no change | inactive
hsa-miR-127-3p | 0.41 | 0.18 | no change | no change | inactive
hsa-miR-374a* | 0.83 | -0.52 | no change | no change | inactive
hsa-miR-320d | 0.15 | 0.6 | no change | no change | inactive
hsa-miR-532-3p | -0.86 | -1.12 | no change | no change | inactive
hsa-miR-219-2-3p | -0.03 | 0.48 | no change | no change | inactive
hsa-miR-548a-3p | -0.1 | 0.02 | no change | no change | inactive
hsa-miR-103-as | -1.79 | -1.21 | no change | no change | inactive
hsa-miR-185* | -1.57 | 2.8 | no change | no change | inactive
hsa-miR-1254 | -1.51 | 4.29 | no change | no change | inactive
hsa-miR-223 | 0.75 | 2.87 | no change | no change | inactive
hsa-miR-1252 | -0.56 | 1.07 | no change | no change | inactive
hsa-miR-302c | 0.78 | 1.86 | no change | no change | inactive
hsa-miR-127-5p | -1.64 | 0.98 | no change | no change | inactive
hsa-miR-338-5p | 0.28 | -0.5 | no change | no change | inactive
hsa-miR-548b-3p | 0.66 | -0.8 | no change | no change | inactive
hsa-miR-502-5p | 0.8 | -0.65 | no change | no change | inactive
hsa-miR-501-3p | 2.02 | -0.26 | no change | no change | inactive
hsa-miR-30c-1* | -0.28 | 1.29 | no change | no change | inactive
hsa-let-7a | 0.94 | 0.7 | no change | no change | inactive
hsa-miR-515-3p | 0.09 | 2.29 | no change | no change | inactive
hsa-miR-554 | 0.13 | 0.16 | no change | no change | inactive
hsa-miR-617 | -1.11 | 0.45 | no change | no change | inactive
hsa-miR-1911* | 1.18 | -0.42 | no change | no change | inactive
hsa-let-7b | -0.82 | -0.4 | no change | no change | inactive
hsa-miR-301a | 0.73 | -0.53 | no change | no change | inactive
hsa-miR-455-5p | -0.73 | 2.44 | no change | no change | inactive
hsa-miR-331-3p | -0.42 | -1.11 | no change | no change | inactive
hsa-miR-20a | 0.26 | -0.04 | no change | no change | inactive
hsa-miR-342-3p | 0.62 | -0.79 | no change | no change | inactive
hsa-miR-496 | 0.98 | -0.5 | no change | no change | inactive
hsa-miR-22* | 0.11 | 1.08 | no change | no change | inactive
hsa-miR-148b | 1.65 | 0.52 | no change | no change | inactive
hsa-miR-584 | -0.14 | 3.66 | no change | no change | inactive
hsa-miR-1471 | 0.82 | -0.3 | no change | no change | inactive
hsa-miR-659 | 0.08 | 0 | no change | no change | inactive
hsa-miR-330-3p | -0.04 | -0.42 | no change | no change | inactive
hsa-miR-18a* | 0.02 | 2.79 | no change | no change | inactive
hsa-miR-220b | 0.51 | -0.87 | no change | no change | inactive
hsa-miR-202* | 1.36 | -0.3 | no change | no change | inactive
hsa-miR-325 | -0.18 | -0.1 | no change | no change | inactive
hsa-miR-425 | -0.01 | -0.62 | no change | no change | inactive
hsa-miR-222 | 0.57 | 2.5 | no change | no change | inactive
